{
  "source": "ChEMBL document CHEMBL4513154",
  "about": "“CO-ADD screening of Jain University (India) compounds”",
  "note": "Some of the results follow. Potency and affinity values are given separately.",
  "data": [
    {"system": "Pseudomonas aeruginosa", "details": "Concentration 32 ug.mL-1; ASSAY_TEST Inhibition of Bacterial Growth; detection method Absorption (OD600); MEDIA CAMHB; plate type 384well; NBS; CORNING #3640; time 18 hr", "units": {"Inhibition": "%"}, "values": [
      {"smiles": "Clc1ccc(Cn2c(-c3cscn3)nc3ccccc32)cn1", "Inhibition": 16.53},
      {"smiles": "Clc1ccc2c(c1)nc(-c1cscn1)n2Cc1ccc(Cl)nc1", "Inhibition": -1.6},
      {"smiles": "Clc1ccc(Cn2c(-c3cscn3)nc3c(Cl)cccc32)cn1", "Inhibition": 7.96}
    ]}
  ]
}
